Results on 2 substances are retold here after PMC9935399.

Sequences of proteins named here, by UniProt entry; tags and fusion partners are left off.
UniProt P11387: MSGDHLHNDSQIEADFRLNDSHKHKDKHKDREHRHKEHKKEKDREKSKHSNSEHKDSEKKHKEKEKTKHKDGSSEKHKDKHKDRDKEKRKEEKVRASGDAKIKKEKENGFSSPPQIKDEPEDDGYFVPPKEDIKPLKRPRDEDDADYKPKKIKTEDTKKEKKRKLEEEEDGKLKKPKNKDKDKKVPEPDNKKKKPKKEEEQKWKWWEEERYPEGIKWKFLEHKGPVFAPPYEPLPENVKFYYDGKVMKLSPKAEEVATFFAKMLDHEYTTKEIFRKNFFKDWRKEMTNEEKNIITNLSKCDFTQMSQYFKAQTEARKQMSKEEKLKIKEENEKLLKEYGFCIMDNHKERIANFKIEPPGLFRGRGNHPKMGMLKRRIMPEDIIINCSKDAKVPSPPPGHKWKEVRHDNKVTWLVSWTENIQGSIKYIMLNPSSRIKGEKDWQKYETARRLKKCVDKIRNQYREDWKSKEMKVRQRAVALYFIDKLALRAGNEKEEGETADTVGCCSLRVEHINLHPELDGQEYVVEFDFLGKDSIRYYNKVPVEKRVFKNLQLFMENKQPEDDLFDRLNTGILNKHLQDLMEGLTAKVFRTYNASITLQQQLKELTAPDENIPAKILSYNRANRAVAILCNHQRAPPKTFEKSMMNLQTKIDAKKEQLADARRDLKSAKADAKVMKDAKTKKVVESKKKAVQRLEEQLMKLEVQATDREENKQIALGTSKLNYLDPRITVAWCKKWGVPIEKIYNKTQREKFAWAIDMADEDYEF
UniProt Q13185: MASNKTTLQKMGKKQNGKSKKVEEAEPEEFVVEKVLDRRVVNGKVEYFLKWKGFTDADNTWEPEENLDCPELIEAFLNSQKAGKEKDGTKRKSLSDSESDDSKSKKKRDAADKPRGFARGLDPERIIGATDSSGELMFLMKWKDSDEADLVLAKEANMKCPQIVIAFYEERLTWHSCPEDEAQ
UniProt Q9BUH6: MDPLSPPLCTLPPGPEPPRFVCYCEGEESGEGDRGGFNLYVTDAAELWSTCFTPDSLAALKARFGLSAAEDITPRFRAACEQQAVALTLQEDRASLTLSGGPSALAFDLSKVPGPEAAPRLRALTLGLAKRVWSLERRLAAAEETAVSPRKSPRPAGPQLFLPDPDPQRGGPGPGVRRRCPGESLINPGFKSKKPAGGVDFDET

The target of the assay is BLRP-2XHA-Top1 wt (topoisomerase I) (UniProt P11387). Briefly: affinity purification with mass spectrometry; ReCLIP: MCF7 cells cross-linked with 0.6 mM DSP (reversible), nuclear extracts, tagged TOP1 complexes captured on streptavidin beads, washes up to 500 mM NaCl, LC-MS/MS; Veh (-E2) and E2-treated cells.

Results are given in words; binding and its absence hold for the method and conditions named. Binding seen in cells or lysates may run through a third protein. Here binding means that the protein was enriched with, or labelled near, the bait; the list need not be complete.

For “heterochromatin protein 1 gamma (HP1γ) (from UniProt Q13185 1-183)”, the binding result was “binds”.

On to “paralogues of XRCC4 and XLF (PAXX) (from UniProt Q9BUH6 1-204)”, for which the binding entry is reported as “binds”.
